# In article doi:10.1101/2025.02.07.636106:
# Chains of the proteins cited; added tags and fusions are not shown. Residues count along the entry.
# UniProt Q9P0T7, residues 21-183: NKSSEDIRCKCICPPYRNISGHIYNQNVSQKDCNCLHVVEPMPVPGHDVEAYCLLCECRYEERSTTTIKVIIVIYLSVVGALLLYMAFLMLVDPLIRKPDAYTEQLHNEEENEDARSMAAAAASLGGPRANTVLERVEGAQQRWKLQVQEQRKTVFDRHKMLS
# UniProt P51793: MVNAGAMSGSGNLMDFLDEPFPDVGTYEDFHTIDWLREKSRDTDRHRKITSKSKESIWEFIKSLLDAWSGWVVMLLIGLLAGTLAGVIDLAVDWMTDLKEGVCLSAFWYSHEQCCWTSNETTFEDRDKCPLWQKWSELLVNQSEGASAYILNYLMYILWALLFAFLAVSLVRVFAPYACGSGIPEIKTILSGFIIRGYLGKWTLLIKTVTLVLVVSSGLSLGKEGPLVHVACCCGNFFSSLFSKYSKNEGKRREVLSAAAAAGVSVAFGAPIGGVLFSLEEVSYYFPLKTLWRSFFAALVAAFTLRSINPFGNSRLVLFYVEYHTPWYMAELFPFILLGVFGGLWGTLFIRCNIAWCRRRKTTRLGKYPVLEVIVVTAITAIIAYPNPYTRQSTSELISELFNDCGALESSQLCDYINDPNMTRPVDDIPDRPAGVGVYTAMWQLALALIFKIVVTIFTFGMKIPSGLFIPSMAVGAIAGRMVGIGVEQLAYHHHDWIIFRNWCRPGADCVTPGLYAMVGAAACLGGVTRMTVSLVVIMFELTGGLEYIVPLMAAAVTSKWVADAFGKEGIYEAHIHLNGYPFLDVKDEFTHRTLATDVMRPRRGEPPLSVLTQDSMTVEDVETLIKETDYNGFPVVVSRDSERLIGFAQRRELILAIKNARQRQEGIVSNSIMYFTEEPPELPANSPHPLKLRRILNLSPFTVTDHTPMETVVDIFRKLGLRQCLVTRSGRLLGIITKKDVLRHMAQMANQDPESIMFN
# Results are given in words; binding and its absence hold for the method and conditions named. In cells and extracts the contact can be indirect. These calls come from enrichment with a bait or labelling near it, and not all partners need be listed.
# Biological target: TMEM9-HA (lentiviral, iNeurons) (human) (UniProt Q9P0T7)
# Assay: affinity purification with mass spectrometry; anti-HA immunoprecipitations from TMEM9-/- iNeurons (day 21) with or without lentiviral expression of TMEM9-HA, four biological replicates; 0.5% DDM extraction; TMT-MS
substance,measurement,value
CLCN4 (from UniProt P51793 1-760),binding,binds
